Only a part is listed here, and it is no random draw. At the low end of the ranking, values are background and their order means little.
Assays:
Test in all cases: DAPPL (digital affinity profiling via proximity ligation, sequencing)
Details in all cases: 10 mM Tris-HCl pH 7.5, 50 mM NaCl, 1 mM DTT, 4% glycerol, room temperature, 30 min; GST-TFs on glutathione beads, 16-mer random dsDNA library, 0.1% …; high values mean tight binding; double strand, one strand shown; scale: fold enrichment (6-mer frequency, TF over GST control)
FLI1 = target: T1, FLI1 (UniProt Q01543)
T1 sequence: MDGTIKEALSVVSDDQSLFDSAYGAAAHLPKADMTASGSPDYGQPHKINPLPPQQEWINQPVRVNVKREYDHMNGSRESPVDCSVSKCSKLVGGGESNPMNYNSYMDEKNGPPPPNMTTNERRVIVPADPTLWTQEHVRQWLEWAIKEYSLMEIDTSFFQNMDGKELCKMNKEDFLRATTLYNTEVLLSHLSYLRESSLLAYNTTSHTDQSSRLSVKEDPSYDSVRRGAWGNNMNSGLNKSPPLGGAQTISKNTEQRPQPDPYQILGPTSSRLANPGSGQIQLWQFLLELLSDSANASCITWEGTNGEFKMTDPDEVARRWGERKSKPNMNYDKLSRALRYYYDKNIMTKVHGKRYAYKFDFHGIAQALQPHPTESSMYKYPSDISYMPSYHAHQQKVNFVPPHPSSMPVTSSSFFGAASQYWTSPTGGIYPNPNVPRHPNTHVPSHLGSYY

Chains of the proteins cited; added tags and fusions are not shown. Lines headed by an entry give the natural chain unless they say otherwise; changes in a name come on top.
UniProt Q01892: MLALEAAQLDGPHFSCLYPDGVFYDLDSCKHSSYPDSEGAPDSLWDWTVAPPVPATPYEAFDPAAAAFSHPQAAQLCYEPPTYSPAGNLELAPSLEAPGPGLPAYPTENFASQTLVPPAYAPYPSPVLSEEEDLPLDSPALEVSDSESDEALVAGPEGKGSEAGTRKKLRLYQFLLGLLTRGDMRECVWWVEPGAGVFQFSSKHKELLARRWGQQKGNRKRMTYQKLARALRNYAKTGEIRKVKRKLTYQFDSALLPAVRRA
UniProt P41161: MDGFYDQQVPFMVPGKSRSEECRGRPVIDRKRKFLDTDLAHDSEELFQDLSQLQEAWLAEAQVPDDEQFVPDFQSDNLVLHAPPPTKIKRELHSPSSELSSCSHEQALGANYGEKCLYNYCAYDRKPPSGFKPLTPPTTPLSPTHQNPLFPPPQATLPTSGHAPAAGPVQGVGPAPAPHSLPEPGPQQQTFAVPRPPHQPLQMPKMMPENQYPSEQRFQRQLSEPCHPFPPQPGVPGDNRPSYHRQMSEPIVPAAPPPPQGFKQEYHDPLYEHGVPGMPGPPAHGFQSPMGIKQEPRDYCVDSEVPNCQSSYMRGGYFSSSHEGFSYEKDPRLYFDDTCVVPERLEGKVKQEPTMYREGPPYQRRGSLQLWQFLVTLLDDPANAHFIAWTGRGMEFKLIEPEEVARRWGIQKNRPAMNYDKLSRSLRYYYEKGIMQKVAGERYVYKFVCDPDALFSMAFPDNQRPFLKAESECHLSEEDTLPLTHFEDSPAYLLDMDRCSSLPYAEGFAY
UniProt Q99607: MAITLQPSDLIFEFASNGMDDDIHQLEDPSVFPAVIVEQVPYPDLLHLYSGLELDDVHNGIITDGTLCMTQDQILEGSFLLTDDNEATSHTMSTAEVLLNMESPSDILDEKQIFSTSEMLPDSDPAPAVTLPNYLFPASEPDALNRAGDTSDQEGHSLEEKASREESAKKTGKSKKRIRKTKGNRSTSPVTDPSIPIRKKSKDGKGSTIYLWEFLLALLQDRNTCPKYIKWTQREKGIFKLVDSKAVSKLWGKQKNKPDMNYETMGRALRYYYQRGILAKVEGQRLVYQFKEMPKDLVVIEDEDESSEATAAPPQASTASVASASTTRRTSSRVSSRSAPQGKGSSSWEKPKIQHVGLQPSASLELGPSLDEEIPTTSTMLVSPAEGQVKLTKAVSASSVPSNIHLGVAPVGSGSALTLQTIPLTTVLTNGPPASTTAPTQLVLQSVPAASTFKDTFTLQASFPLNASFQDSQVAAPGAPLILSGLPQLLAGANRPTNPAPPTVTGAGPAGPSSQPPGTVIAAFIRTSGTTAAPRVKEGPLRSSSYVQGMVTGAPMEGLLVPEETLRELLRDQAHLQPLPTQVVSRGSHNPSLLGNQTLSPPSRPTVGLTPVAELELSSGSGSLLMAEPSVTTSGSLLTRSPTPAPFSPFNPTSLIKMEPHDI

EHF = target: T2, EHF (UniProt Q9NZC4)
T2 sequence: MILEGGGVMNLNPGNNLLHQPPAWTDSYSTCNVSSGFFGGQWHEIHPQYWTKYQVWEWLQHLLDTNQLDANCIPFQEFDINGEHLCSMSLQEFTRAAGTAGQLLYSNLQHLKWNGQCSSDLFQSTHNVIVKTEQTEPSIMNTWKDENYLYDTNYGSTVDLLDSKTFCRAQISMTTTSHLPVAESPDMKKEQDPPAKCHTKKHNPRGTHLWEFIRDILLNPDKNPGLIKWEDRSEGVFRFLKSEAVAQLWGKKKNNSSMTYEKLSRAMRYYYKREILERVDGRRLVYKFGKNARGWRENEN

SPIB = SPIB (UniProt Q01892)
ETV5 = ETV5 (UniProt P41161)
ELF4 = ELF4 (UniProt Q99607)
ETV2 = target: T3, ETV2 (UniProt O00321)
T3 sequence: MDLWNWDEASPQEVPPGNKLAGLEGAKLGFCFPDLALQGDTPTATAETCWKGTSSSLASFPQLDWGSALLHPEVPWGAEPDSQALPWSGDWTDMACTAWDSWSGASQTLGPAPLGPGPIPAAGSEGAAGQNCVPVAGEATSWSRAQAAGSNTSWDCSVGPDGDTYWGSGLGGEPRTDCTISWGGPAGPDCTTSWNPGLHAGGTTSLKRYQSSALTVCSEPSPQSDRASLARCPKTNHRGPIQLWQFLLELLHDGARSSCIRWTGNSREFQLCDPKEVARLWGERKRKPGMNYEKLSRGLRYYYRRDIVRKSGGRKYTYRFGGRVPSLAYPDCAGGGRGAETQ

ETV3L = target: T4, ETV3L (UniProt Q6ZN32)
T4 sequence: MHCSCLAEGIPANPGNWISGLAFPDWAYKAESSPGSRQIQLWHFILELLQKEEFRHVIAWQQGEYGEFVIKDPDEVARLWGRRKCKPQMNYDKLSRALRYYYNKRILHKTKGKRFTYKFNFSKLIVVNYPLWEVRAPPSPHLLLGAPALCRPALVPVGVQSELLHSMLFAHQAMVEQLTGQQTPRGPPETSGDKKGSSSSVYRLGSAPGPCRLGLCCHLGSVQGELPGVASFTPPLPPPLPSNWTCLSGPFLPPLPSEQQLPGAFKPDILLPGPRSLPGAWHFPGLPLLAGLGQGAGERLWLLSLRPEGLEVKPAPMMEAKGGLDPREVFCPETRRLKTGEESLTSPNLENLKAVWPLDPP

| Sequence | binding signal (FLI1) | binding signal (EHF) | binding signal (SPIB) | binding signal (ETV5) | binding signal (ELF4) | binding signal (ETV2) | binding signal (ETV3L) |
| --- | --- | --- | --- | --- | --- | --- | --- |
| CCCTAG | 0.951 | 0.899 | 1.05 | 0.909 | 0.963 | 0.849 | 0.935 |
| ACGAGC | 0.995 | 1.02 | 0.998 | 0.926 | 0.958 | 1.04 | 0.916 |
| CATCAG | 1 | 1.03 | 0.901 | 0.927 | 0.951 | 0.93 | 0.901 |
| AAGCCG | 0.923 | 0.919 | 0.859 | 0.929 | 0.884 | 0.918 | 0.888 |
| TCGAAA | 0.978 | 0.978 | 0.88 | 0.972 | 0.977 | 0.936 | 0.954 |
| ATCAGA | 0.989 | 0.971 | 0.915 | 0.97 | 0.963 | 0.965 | 0.954 |
| GCGCGT | 0.862 | 0.857 | 0.869 | 0.801 | 0.884 | 0.968 | 0.888 |
| AGAGAT | 0.874 | 0.916 | 0.813 | 0.909 | 0.89 | 0.854 | 0.946 |
| GACATG | 0.972 | 0.969 | 0.937 | 0.842 | 0.951 | 0.911 | 0.979 |
| CTGAGG | 0.807 | 0.824 | 0.878 | 0.818 | 0.803 | 0.733 | 0.865 |
| GTAAGC | 1.02 | 0.965 | 0.894 | 0.839 | 0.847 | 0.922 | 0.908 |
| AAAGTC | 0.977 | 0.931 | 0.936 | 0.954 | 0.893 | 0.873 | 0.928 |
| GTGGAT | 0.829 | 0.921 | 0.937 | 0.961 | 0.92 | 0.872 | 0.993 |
| GCGACA | 0.941 | 0.899 | 0.98 | 0.947 | 0.938 | 0.914 | 1.04 |
| GGAATA | 0.99 | 0.931 | 0.923 | 0.89 | 0.874 | 0.947 | 0.888 |
| GTGGAA | 0.911 | 0.972 | 0.983 | 0.936 | 0.881 | 0.952 | 0.959 |
| CTAGGG | 0.867 | 0.933 | 0.809 | 0.82 | 0.929 | 0.942 | 0.961 |
| CAGATA | 0.914 | 0.876 | 0.999 | 0.907 | 0.905 | 0.974 | 0.959 |
| GCATTA | 0.773 | 0.902 | 0.825 | 0.813 | 0.898 | 0.836 | 0.891 |
| GCCGGA | 0.985 | 1.08 | 1.01 | 1.16 | 0.928 | 0.907 | 0.993 |
| TGGCGC | 0.994 | 0.922 | 0.928 | 0.853 | 0.944 | 0.743 | 0.999 |
| GTGTTG | 0.953 | 0.94 | 0.856 | 0.883 | 0.879 | 0.977 | 0.988 |

Four entries from above, as tab-separated lines:
Sequence	binding signal (FLI1)	binding signal (EHF)	binding signal (SPIB)	binding signal (ETV5)	binding signal (ELF4)	binding signal (ETV2)	binding signal (ETV3L)
GGAATA	0.99	0.931	0.923	0.89	0.874	0.947	0.888
GTGGAA	0.911	0.972	0.983	0.936	0.881	0.952	0.959
CTAGGG	0.867	0.933	0.809	0.82	0.929	0.942	0.961
CAGATA	0.914	0.876	0.999	0.907	0.905	0.974	0.959
